Consider one substance from article PMC11570969.

Sequences of proteins named here, by UniProt entry; tags and fusion partners are left off.
UniProt Q62205: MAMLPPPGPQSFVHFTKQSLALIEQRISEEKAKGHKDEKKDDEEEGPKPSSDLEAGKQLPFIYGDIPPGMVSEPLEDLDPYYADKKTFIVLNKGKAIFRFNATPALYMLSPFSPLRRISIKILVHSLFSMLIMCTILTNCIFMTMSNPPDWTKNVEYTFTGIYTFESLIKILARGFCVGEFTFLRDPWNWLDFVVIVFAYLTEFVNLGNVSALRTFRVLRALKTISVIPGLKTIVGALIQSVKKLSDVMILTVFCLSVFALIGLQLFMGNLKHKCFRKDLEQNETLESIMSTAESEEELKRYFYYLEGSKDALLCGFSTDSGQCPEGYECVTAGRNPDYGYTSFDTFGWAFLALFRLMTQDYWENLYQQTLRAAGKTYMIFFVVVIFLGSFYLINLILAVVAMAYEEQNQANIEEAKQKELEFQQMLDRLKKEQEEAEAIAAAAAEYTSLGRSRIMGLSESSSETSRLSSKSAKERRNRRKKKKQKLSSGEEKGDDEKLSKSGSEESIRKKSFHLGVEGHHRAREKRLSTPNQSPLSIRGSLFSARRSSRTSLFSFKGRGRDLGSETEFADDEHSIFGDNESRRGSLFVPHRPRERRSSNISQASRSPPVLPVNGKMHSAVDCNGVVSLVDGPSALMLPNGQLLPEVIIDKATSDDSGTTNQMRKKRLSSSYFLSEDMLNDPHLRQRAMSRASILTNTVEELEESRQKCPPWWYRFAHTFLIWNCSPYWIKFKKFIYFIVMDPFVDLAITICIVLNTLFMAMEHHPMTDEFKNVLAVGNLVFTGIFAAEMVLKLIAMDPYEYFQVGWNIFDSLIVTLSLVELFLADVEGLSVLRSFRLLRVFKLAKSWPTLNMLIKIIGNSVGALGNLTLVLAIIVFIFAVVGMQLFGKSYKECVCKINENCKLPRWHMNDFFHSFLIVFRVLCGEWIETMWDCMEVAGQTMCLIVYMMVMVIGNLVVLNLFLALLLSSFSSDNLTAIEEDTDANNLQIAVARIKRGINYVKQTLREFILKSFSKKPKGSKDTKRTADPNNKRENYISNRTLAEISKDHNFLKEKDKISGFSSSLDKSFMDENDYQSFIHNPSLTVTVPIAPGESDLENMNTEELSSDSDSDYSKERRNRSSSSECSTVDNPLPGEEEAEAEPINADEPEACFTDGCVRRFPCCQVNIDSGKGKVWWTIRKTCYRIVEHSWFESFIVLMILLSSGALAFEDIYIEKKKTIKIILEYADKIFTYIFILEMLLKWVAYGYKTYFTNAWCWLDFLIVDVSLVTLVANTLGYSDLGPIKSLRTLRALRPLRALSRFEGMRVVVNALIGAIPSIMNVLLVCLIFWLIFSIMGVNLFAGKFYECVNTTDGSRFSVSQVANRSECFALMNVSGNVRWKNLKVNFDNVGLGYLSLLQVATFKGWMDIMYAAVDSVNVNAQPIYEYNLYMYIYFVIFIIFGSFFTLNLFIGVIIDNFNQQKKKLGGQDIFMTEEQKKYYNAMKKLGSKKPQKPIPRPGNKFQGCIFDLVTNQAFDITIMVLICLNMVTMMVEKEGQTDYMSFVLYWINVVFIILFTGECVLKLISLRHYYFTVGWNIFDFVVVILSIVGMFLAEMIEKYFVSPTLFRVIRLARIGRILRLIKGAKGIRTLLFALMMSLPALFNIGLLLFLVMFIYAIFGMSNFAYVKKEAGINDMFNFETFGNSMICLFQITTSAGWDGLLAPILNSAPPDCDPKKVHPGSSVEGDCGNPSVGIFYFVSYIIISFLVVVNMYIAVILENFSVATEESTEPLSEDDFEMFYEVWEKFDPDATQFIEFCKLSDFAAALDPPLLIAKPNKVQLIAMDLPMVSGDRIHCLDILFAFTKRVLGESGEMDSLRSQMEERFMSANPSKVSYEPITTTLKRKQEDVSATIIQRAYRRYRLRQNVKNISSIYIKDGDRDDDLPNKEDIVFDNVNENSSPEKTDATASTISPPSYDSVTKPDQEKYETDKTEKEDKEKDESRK
UniProt B1AWN6: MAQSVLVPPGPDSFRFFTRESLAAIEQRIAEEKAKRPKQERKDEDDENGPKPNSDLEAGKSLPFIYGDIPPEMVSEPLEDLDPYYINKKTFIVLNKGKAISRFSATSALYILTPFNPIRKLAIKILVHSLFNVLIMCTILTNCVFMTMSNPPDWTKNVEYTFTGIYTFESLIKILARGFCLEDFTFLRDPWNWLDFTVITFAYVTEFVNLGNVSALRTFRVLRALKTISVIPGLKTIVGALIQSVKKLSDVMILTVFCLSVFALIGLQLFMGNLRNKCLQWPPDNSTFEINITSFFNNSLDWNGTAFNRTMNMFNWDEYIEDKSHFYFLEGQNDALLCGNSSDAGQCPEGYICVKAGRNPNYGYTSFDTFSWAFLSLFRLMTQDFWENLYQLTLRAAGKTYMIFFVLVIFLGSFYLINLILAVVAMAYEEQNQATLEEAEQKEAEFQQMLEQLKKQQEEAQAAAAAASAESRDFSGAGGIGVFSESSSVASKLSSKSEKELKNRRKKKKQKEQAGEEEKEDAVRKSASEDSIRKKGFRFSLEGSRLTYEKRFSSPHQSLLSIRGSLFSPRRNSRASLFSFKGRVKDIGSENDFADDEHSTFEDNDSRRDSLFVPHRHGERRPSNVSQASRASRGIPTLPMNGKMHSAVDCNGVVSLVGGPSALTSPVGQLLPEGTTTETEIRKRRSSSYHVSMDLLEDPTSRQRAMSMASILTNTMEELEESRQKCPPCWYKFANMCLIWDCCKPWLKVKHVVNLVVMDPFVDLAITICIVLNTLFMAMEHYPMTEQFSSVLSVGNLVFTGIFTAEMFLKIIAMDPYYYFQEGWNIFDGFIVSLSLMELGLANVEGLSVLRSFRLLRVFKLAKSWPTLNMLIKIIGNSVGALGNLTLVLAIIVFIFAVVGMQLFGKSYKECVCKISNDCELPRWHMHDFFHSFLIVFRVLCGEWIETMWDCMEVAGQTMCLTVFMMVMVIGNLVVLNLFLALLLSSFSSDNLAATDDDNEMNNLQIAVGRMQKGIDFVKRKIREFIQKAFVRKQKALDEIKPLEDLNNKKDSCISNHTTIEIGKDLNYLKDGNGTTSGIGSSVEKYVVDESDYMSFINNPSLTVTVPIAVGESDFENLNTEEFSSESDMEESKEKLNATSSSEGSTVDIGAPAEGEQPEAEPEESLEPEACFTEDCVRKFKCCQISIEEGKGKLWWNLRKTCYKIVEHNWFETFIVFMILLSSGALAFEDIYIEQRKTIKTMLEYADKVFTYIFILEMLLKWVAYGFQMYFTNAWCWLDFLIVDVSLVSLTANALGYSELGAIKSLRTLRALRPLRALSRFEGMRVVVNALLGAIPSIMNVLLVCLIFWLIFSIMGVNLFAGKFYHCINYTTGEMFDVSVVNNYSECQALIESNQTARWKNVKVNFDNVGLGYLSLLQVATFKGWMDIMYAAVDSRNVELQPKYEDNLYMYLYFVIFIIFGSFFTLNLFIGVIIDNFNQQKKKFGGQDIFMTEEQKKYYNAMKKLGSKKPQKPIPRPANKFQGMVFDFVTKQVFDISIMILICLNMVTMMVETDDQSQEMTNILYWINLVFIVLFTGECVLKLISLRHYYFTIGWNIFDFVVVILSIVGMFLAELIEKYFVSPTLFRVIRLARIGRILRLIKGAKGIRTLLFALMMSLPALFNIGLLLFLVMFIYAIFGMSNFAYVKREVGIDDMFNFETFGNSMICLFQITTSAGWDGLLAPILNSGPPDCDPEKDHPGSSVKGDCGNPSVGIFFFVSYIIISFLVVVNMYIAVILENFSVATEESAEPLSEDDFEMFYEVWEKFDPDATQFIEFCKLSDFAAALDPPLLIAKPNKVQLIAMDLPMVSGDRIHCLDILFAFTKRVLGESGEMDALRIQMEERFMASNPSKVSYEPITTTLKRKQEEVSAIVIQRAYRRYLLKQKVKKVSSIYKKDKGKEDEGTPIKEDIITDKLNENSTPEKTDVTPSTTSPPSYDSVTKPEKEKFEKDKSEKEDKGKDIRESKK

For the experiment, the target named is Epitope-tagged Nav1.7 (TAP-tagged Nav1.7, knock-in mouse) (mouse) (UniProt Q62205). Briefly: affinity purification with mass spectrometry; epitope-tagged (TAP-tagged) Nav1.7 mice; Nav1.7 complexes purified with M2 Magnetic FLAG coupled beads; mass spectrometry of the immunoprecipitates, as described in Kanellopoulos et al., 2018.

These are yes or no findings as the source states them, for the method shown. Binding seen in cells or lysates may run through a third protein. A yes stands for co-enrichment or nearness to the bait. Other partners may have been found.

“Sodium channel Nav1.2 (from UniProt B1AWN6 1-2006)”: the binding result is “binds”.
